Assay results as given in patent US10501780B2, “Compositions for in situ nucleic acid analysis” (APPLIED BIOSYSTEMS, LLC, priority 2007, dated 2019).

Assay: FAM background fluorescence and Rn in qPCR amplification plots with surfactants
Conditions: surfactant 0.01% to 1%; FAM fluor, MGB quencher

Row | Substance | background fluorescence (Ro), FAM | effect on Rn (fluorescence corrected to ROX)
1 | dodecyl alcohol polyoxyethylene ether [THESIT™] | increased | little effect
2 | octylphenol ethoxylate having an average of 9.5 ethoxylate groups [TRITON X-100™] | increased | decreased
3 | octylphenolpoly(ethyleneglycolether) [NONIDET P-40™] | increased | decreased
